Laboratory results as given in patent publication US20230129674 (published 2023).

Assay: general procedure: solution-phase peptide synthesis; T3P/NMI/DIPEA; HATU/DIPEA or HATU/2,6-lutidine
Details: coupling step

**Q.** With Val-Dil-Dap-Phe-OMe as the substance, how does the step yield read?
**A.** 80%
